This passage reports binding results from publication PMC8931434.

To fix the notation:
T1: Ceramide synthase 2 (mouse) (UniProt Q924Z4)
T1 sequence: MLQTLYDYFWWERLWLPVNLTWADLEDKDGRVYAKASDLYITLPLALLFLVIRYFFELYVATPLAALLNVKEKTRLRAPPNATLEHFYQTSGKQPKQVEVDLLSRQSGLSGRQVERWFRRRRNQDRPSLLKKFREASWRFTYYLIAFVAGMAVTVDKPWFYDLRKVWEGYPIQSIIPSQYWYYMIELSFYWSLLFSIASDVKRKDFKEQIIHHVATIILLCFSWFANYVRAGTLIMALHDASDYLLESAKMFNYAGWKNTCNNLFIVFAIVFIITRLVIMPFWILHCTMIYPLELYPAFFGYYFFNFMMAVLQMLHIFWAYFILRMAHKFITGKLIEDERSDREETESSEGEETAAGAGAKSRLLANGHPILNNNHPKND

B1: Formimidoyltransferase-cyclodeaminase (protein, UniProt Q91XD4 1-541)
chain: MSQLVECVPNFSEGNNQEVIDAISRAISQTPGCVLLDVDAGPSTNRTVYTFVGQPECVVEGALHAARTASQLIDMSKHKGEHPRMGALDVCPFIPVRGVSMEECVLCAKAFGQRLAEELNVPVYLYGEAAQTPSRQTLPAIRAGEYEALPEKLKQAEWVPDFGPSSFVPSWGATVTGARKFLIAFNINLLSTKEQAHRIALNLREQGRGKDQPGRLKKVQGIGWYLEEKNLAQVSTNLLDFEVTALHTVFEEARREAQELNLPVVGSQLVGLVPLKALLDAAAFYCDKEKLFVLEEEHRIRLVVNRLGLDSLAPFDPKERIIEYLVPDSGPEQSLLDTSLRGFVREVGARSAAPGGGSVAAAVAALGAALASMVGQMTYGRRQFDHLDSTMRRLIPPFHAASAQLTSLVDADARAFAACLEAIKLPKNTPEERDRRACALQEGLRQAVAVPLKLAETVSQLWPALQELAHCGNLSCLSDLQVAAKALETGVFGAYFNVLINLKDMTDDVFKEKTHHRISSLLQEAKTQAALVLGSLEARKE
B2: Betaine–homocysteine S-methyltransferase 1 (protein, UniProt O35490 1-407)
chain: MAPVAGKKAKKGILERLNAGEVVIGDGGFVFALEKRGYVKAGPWTPEAAVEHPEAVRQLHREFLRAGSNVMQTFTFYASEDKLENRGNYVAEKISGQKVNEAACDIARQVADEGDALVAGGVSQTPSYLSCKSEVEVKKIFRQQLEVFMKKNVDFLIAEYFEHVEEAVWAVEALKASGKPVAATMCIGPEGDLHGVPPGECAVRLVKAGASIVGVNCHFDPSVSLQTVKLMKEGLEAARLKAYLMSQPLAYHTPDCGKQGFIDLPEFPFGLEPRVATRWDIQKYAREAYNLGVRYIGGCCGFEPYHIRAIAEELAPERGFLPPASEKHGSWGSGLDMHTKPWIRARARKEYWQNLRIASGRPYNPSMSRPDAWGVTKGAAELMQQKEATTEQQLRELFEKQKFKSAQ
B3: Carbonic anhydrase 3 (protein, UniProt P16015 1-260)
chain: MAKEWGYASHNGPDHWHELYPIAKGDNQSPIELHTKDIKHDPSLQPWSASYDPGSAKTILNNGKTCRVVFDDTYDRSMLRGGPLSGPYRLRQFHLHWGSSDDHGSEHTVDGVKYAAELHLVHWNPKYNTFGEALKQPDGIAVVGIFLKIGREKGEFQILLDALDKIKTKGKEAPFTHFDPSCLFPACRDYWTYHGSFTTPPCEECIVWLLLKEPMTVSSDQMAKLRSLFSSAENEPPVPLVGNWRPPQPVKGRVVRASFK
B4: Maleylacetoacetate isomerase (protein, UniProt Q9WVL0 1-216)
chain: MQAGKPILYSYFRSSCSWRVRIALALKGIDYEIVPINLIKDGGQQFTEEFQTLNPMKQVPALKIDGITIVQSLAIMEYLEETRPIPRLLPQDPQKRAIVRMISDLIASGIQPLQNLSVLKQVGQENQMQWAQKVITSGFNALEKILQSTAGKYCVGDEVSMADVCLVPQVANAERFKVDLSPYPTISHINKELLALEVFQVSHPRRQPDTPAELRT
B5: Peroxiredoxin-6 (protein, UniProt O08709 1-224)
chain: MPGGLLLGDEAPNFEANTTIGRIRFHDFLGDSWGILFSHPRDFTPVCTTELGRAAKLAPEFAKRNVKLIALSIDSVEDHLAWSKDINAYNGETPTEKLPFPIIDDKGRDLAILLGMLDPVEKDDNNMPVTARVVFIFGPDKKLKLSILYPATTGRNFDEILRVVDSLQLTGTKPVATPVDWKKGESVMVVPTLSEEEAKQCFPKGVFTKELPSGKKYLRYTPQP
B6: Hydroxymethylglutaryl-CoA synthase, mitochondrial (protein, UniProt P54869 38-508)
chain: TIPPAPLAKTDTWPKDVGILALEVYFPAQYVDQTDLEKFNNVEAGKYTVGLGQTRMGFCSVQEDINSLCLTVVQRLMERTKLPWDAVGRLEVGTETIIDKSKAVKTVLMELFQDSGNTDIEGIDTTNACYGGTASLFNAANWMESSYWDGRYALVVCGDIAVYPSGNARPTGGAGAVAMLIGPKAPLVLEQGLRGTHMENAYDFYKPNLASEYPLVDGKLSIQCYLRALDRCYAAYRKKIQNQWKQAGNNQPFTLDDVQYMIFHTPFCKMVQKSLARLMFNDFLSSSSDKQNNLYKGLEAFRGLKLEETYTNKDVDKALLKASLDMFNQKTKASLYLSTNNGNMYTSSLYGCLASLLSHHSAQELAGSRIGAFSYGSGLAASFFSFRVSKDASPGSPLEKLVSSVSDLPKRLDSRRRMSPEEFTEIMNQREQFYHKVNFSPPGDTSNLFPGTWYLERVDEMHRRKYARCPV
B7: 3-ketoacyl-CoA thiolase, mitochondrial (protein, UniProt Q8BWT1 1-397)
chain: MALLRGVFIVAAKRTPFGAYGGLLKDFSATDLTEFAARAALSAGKVPPETIDSVIVGNVMQSSSDAAYLARHVGLRVGVPTETGALTLNRLCGSGFQSIVSGCQEICSKDAEVVLCGGTESMSQSPYCVRNVRFGTKFGLDLKLEDTLWAGLTDQHVKLPMGMTAENLAAKYNISREDCDRYALQSQQRWKAANEAGYFNEEMAPIEVKTKKGKQTMQVDEHARPQTTLEQLQKLPSVFKKDGTVTAGNASGVSDGAGAVIIASEDAVKKHNFTPLARVVGYFVSGCDPTIMGIGPVPAINGALKKAGLSLKDMDLIDVNEAFAPQFLSVQKALDLDPSKTNVSGGAIALGHPLGGSGSRITAHLVHELRRRGGKYAVGSACIGGGQGIALIIQNTA
B8: Cytochrome P450 2F2 (protein, UniProt P33267 1-491)
chain: MDGVSTAILLLLLAVISLSLTFSSRGKGQLPPGPKPLPILGNLLQLRSQDLLTSLTKLSKEYGSVFTVYLGSRPVIVLSGYQTVKEALVDKGEEFSGRGAYPVFFNFTRGNGIAFSDGERWKILRRFSVQILRNFGMGKRSIEERILEEGSFLLEVLRKMEGKPFDPVFILSRSVSNIICSVVFGSRFDYDDERLLTIIHFINDNFKIMSSPWGEMYNIFPSVLDWIPGPHKRLFRNFGGMKDLIARSVREHQDSLDPNSPRDFIDCFLTKMAQEKQDPLSHFNMDTLLMTTHNLLFGGTETVGTTLRHAFLILMKYPKVQARVQEEIDRVVGRSRMPTLEDRTSMPYTDAVIHEVQRFADVIPMNLPHRVTRDTPFRGFLIPKGTDVITLLNTVHYDSDQFKTPQEFNPEHFLDDNHSFKKSPAFMPFSAGRRLCLGEPLARMELFIYFTSILQNFTLQPLVDPEDIDLTPLSSGLGNLPRPFQLCMHIR

No constants are given. Whether binding was seen depends on the method and setting. Binding seen in cells or lysates may run through a third protein. Here binding means that the protein was enriched with, or labelled near, the bait; the list need not be complete.

This experiment addresses T1, Ceramide synthase 2 (mouse). Kind of experiment: affinity purification with mass spectrometry; rabbit anti-CerS2 antibody and protein A agarose on WT mouse liver homogenate (150 mM NaCl, 20 mM Hepes pH 7.5, 1% digitonin, 4 °C), LC-MS/MS, compared with CerS2 null mouse liver; three mice per group.
Take B1: the binding entry is on record as “binds”.

Take B2: the binding entry is “binds”. To B3 belongs “binds”.

Consider B4, for which the binding entry is on record as “binds”. To B5 belongs “binds”; to B6, “binds”.

Take B7: the binding entry is reported as “binds”. To B8 belongs “binds”.
